Measurements from article PMC12090556.
Results are given in words; binding and its absence hold for the method and conditions named. Binding seen in cells or lysates may run through a third protein. Some results given as binding are weak or reduced against the parent protein; the word gives no strength. Tags and fused reporters may be left off the sequences shown. Values belong to the molecule of their own block, whether it stands above or below them.

By UniProt entry, the sequences of proteins in these tests, tags left out. Where a name states a change or a piece, a line headed by the entry shows the natural chain unless it says otherwise. Residues count along the entry.
UniProt P08581: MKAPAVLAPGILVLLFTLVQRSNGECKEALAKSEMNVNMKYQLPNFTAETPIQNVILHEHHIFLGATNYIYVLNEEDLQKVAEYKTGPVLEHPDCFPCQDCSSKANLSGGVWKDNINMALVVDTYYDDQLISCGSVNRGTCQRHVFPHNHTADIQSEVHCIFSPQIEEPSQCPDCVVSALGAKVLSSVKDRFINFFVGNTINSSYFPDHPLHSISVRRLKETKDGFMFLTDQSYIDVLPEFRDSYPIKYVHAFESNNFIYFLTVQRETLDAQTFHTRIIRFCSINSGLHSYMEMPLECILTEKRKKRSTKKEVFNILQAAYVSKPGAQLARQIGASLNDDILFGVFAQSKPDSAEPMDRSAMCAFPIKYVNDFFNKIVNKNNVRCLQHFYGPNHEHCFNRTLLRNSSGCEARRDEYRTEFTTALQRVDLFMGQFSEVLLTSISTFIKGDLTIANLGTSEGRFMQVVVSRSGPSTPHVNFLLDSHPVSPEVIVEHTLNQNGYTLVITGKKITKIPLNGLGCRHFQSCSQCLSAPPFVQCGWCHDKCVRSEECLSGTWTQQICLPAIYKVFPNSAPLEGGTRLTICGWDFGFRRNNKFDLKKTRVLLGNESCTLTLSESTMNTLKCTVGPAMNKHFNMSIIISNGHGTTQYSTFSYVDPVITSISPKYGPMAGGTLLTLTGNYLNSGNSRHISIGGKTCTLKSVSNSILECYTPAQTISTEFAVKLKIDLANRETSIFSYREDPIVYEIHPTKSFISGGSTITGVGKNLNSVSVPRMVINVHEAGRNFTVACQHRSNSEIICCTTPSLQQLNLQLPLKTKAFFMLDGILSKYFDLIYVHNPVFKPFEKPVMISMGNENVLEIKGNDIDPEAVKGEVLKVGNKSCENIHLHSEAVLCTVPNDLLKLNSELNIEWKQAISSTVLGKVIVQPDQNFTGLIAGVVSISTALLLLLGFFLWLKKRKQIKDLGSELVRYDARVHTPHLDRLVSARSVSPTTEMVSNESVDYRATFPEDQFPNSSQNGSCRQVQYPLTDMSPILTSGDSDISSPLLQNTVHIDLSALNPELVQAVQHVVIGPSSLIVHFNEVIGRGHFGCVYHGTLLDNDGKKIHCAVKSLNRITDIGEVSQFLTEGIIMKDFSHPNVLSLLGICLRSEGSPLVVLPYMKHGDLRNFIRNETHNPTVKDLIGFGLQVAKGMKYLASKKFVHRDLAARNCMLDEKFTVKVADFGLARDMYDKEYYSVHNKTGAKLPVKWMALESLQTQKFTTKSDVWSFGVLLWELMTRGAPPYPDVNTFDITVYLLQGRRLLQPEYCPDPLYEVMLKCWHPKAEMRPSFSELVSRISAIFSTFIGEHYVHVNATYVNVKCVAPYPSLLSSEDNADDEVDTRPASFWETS
c-Met (human (endogenous in HepG2)): residues 25-1390 of P08581

Assays:
LgBiT-tagged HHLA2 = target: T1, LgBiT-tagged HHLA2 (UniProt Q9UM44); test: split reporter; split-luciferase complementation; indicated amounts of recombinant SmBiT-tagged ExD protein added to HEK293 cells expressing the LgBiT-tagged partner; luminescence measured; only the binder purified
T1 sequence: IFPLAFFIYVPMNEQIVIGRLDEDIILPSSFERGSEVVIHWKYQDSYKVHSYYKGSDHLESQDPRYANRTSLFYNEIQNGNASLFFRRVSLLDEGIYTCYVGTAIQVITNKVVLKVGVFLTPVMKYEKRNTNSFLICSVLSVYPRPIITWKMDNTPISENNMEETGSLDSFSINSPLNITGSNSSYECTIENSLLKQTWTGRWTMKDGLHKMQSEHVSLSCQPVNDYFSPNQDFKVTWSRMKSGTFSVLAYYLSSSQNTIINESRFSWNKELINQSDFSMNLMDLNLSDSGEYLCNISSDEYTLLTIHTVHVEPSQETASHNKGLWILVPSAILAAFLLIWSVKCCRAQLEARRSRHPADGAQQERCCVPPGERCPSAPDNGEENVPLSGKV

HHLA2-HA = target: T2, HHLA2-HA (UniProt Q9UM44); test: co-IP; HepG2 and Hep3B cells with or without HHLA2 overexpression; anti-HA antibody and reciprocal; also after Tunicamycin treatment of HepG2 cells
T2 sequence (chain, glycosylated (N-linked; sites not named)): T1 sequence

[1] = target: c-Met (human (endogenous in HepG2)) (UniProt P08581); test: as above

binding (LgBiT-tagged HHLA2): binds
Molecule: c-MET-ExD-SmBit-6His (from UniProt P08581 25-932) (domain or fragment)

binding (HHLA2-HA): binds
Molecule: c-Met (from UniProt P08581 25-1390) (receptor)

binding [1]: binds
B1: HHLA2-HA (protein, UniProt Q9UM44 23-414)
chain: T1 sequence
modifications: glycosylated (N-linked; sites not named)
